The whole screen tested about 320,000 compounds, of which about 22,000 (6.9%) were called active. This list was built around the results that the source calls inconclusive (neither active nor inactive); the mix of calls is not that of the screen. Calls follow the shape of the dose curve; as a rule, active = well fitted inhibition curve with a large enough effect; inconclusive = small, poorly fitted or top-dose-only effect, or another doubt; inactive = no such curve, though single readings can be large or run the other way. Potencies of inconclusive entries are doubtful fits and often do not repeat.
assay: Primary qHTS for delayed death inhibitors of the malarial parasite plastid, 96 hour incubation; conditions: P. falciparum luciferase reporter growth; series mostly up to 28.7 µM
How it was run: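 Two parasite generations (96 h, 37 C, 5% CO2) of compound exposure in infected erythrocytes (0.05% parasitemia, 2% hematocrit). Luciferase-reporter P. falciparum; decreased luminescence indicates inhibited growth, aimed at apicoplast-acting delayed death.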
% is scaled to controls: 0 for no effect and ±100 for the full control effect; potency is read from the fitted curve at half-maximal effect.

Row | Compound | Potency | activity change, negative = inhibition
1 | Cc1cnc(C(=O)Nc2ccc(-n3cnnn3)cc2)cn1 | inconclusive: 18.5 µM [inhibitor, single point] | –
2 | CCCCOC(=O)c1ccc(NC(=O)C(=O)NCc2ccco2)cc1 | – | inactive: 33.4% [at 5.75 µM]
3 | CC(C)Cn1c(N)c(C(=O)COC(=O)c2ccc(O)cc2)c(=O)n(C)c1=O | inactive | –
4 | CC1CN(c2oc(Cc3cccc4ccccc34)nc2C#N)CC(C)O1 (configuration not stated) | inconclusive: 11.7 µM [inhibitor, single point] | –
5 | Cc1cnc(C(=O)OCC(=O)N2c3ccccc3NC(=O)C2(C)C)cn1 | inconclusive: 18.5 µM [inhibitor, single point] | –
6 | CCOC(=O)C1CCCc2c1[nH]c1ccc(Cl)cc21 (configuration not stated) | inconclusive: 10.4 µM [inhibitor, single point] | –
7 | COc1ccc(CCNc2ccc(C(CC(N)=O)NC(=O)c3ccccc3)cc2[N+](=O)[O-])cc1 (configuration not stated) | inconclusive: 18.5 µM [inhibitor, partial curve, poor fit] | –
8 | CCOC(=O)CCNc1n[nH]c(=O)[nH]c1=O | inactive | –
9 | CCOC(=O)c1cc(NC(=O)N(C)C2CCCCC2)c(C)nc1C | inactive | –
10 | Cn1c(SCc2ccc(Br)cc2)nc2ccccc2c1=O | inconclusive: 11.7 µM [inhibitor, partial curve, poor fit] | –
11 | COn1c(SCc2ccc(Cl)cc2)nc2ccccc2c1=O | inconclusive: 7.38 µM [inhibitor, partial curve, poor fit] | –
12 | Cc1ccc(-n2c(N)c(S(=O)(=O)c3ccccc3)c3nc4ccccc4nc32)cc1 | inconclusive: 18.5 µM [inhibitor, single point] | –
13 | [O-][n+]1ccccc1SSc1cccc[n+]1[O-] | active: 0.478 µM | –
14 | Cc1ccc(C(=O)NCCSC(C)(C)C)cc1[N+](=O)[O-] | inactive | –
15 | N#Cc1c(-c2ccccc2)ccn(Cc2ccc(Cl)cc2)c1=O | inconclusive: 4.65 µM [inhibitor, partial curve, poor fit] | –
16 | COc1ccc(-c2nnc3c4ccccc4c(C)nn23)cc1S(=O)(=O)N1CCN(CCO)CC1 | active: 2.62 µM | –
17 | COc1cc(C(=O)OCCc2c(C)nc3nc[nH]n3c2=O)cc(OC)c1OC | inconclusive: 0.0037 µM [inhibitor, full curve, poor fit] | –
18 | C=CCc1c(O)c(CC)cc2c(C)cc(=O)oc12 | inactive | –
19 | COCCOC(=O)N/C=C\c1nc2ccccc2c(=O)[nH]1 | inactive | –
20 | CCN(CC)c1nc(-c2ccccc2)nc2ccccc12 | inconclusive: 0.329 µM [inhibitor, full curve, poor fit] | –
21 | Cc1ccc(SCCNCc2ccco2)cc1 | inactive | –
22 | CC1c2ccccc2SC(CCCN(C)C)c2ccccc21 (configuration not stated) | inconclusive: 10.4 µM [inhibitor, partial curve, poor fit] | –
23 | COc1cc2c(cc1NC(=O)C(C)Sc1nc3ccccc3n1C)oc1ccccc12 (configuration not stated) | active: 7.38 µM | –
24 | Cc1ccc(C(=O)NCc2ccc3c(c2)OCO3)cc1N1CCCC1=O | inactive | –

Row | Compound | Potency | activity change, negative = inhibition
25 | C#CCOCCOCCOCCNc1nc(N2CCOCC2)nc(N2CCN(C(=O)CCCCCCCCCCNC(=O)[C@@H]([C@H](C)O)n3cc(C)nn3)CC2)n1 | inconclusive: 0.329 µM [inhibitor, full curve] | –
26 | COC(C[C@@H](O)[C@@H](C)[C@H](O)COCc1ccccc1)OC | inconclusive: 2.94 µM [inhibitor, single point] | –
27 | O=C(c1ccc2oc(CCCc3ccccc3)nc2c1)N1CCCC(CCCO)C1 (configuration not stated) | inconclusive: 11.7 µM [inhibitor, single point] | –
28 | Cc1nnc(NC(=O)Cn2cnc3c2c(=O)n(C)c(=O)n3C)s1 | inconclusive: 13.1 µM [inhibitor, single point] | –
29 | CCCNC(=O)CCC(=O)Nc1ncc(-c2ccc(C)cc2)n1C | inactive | –
30 | CC1CCN(C(=O)c2cc3ccccc3o2)CC1 | inconclusive: 3.29 µM [inhibitor, full curve, poor fit] | –
31 | Cc1ccc(S(=O)(=O)N(C)c2ccccc2C(=O)Nc2c(F)cccc2F)cc1 | inconclusive: 11.7 µM [inhibitor, single point] | –
32 | Cc1ccc(S(=O)(=O)N2[C@@H](c3ccc(F)cc3)C(C(=O)O)=CC[C@H]2c2cccs2)cc1 | inconclusive: 18.5 µM [inhibitor, single point] | –
33 | O=C(NNC(=O)c1sccc1-n1cccc1)c1ccc(Cl)cc1 | active: 0.329 µM | –
34 | CC(C)Nc1nc2c(c(=O)n(C)c(=O)n2C)n1C | inactive | –
35 | COCCNC(=S)N1CCN(Cc2cccc(OC)c2)CC1 | inconclusive: 0.104 µM [inhibitor, full curve, poor fit] | –
36 | CC12CCC(=O)N1C(C(=O)Nc1nnc(SCc3ccc(F)cc3)s1)CS2 (configuration not stated) | inactive | –
37 | COC(=O)C1=C(c2ccc(OC(F)(F)F)cc2)C[C@@H]2CC[C@H]1N2C(=O)NC1CC1 | active: 5.86 µM | –
38 | COc1ccc(CNCCC(c2ccccc2)c2ccc(OC(C)C)cc2)cc1OC (configuration not stated) | inconclusive: 10.4 µM [inhibitor, single point] | –
39 | O=C(CSc1n[nH]c(=O)[nH]c1=O)NC1CC1 | inactive | –
40 | C/C(N)=C(/C#N)C(=O)CSc1nnnn1-c1ccc(C)cc1 | inconclusive: 13.1 µM [inhibitor, single point] | –
41 | CC1=CC(c2ccc(Cl)cc2)n2nc(NC(=O)CCCC(=O)O)nc2N1 (configuration not stated) | inactive | –
42 | COc1ccc(S(=O)(=O)N2Cc3ccccc3CC2C(=O)N2CCOCC2)cc1OC (configuration not stated) | inconclusive: 3.29 µM [inhibitor, full curve] | –
43 | CCOCCCn1c(SCC(=O)Nc2cc(C(C)(C)C)nn2-c2ccccc2)nc2ccccc2c1=O | inconclusive: 9.28 µM [inhibitor, partial curve] | –
44 | CC12CCC(=O)N1C(C(=O)NNC(=O)c1ccccc1)CS2 (configuration not stated) | inactive | –
45 | O=C(Cn1cnc2ccccc21)Nc1ccc2c(c1)OCCCO2 | inactive | –
46 | Cn1cc(SCC(=O)N2CCN(c3ccccc3)CC2)c2ccccc21 | inconclusive: 18.5 µM [inhibitor, single point] | –
47 | CC(=O)Nc1cccc(C(=O)NNC(=O)c2ccccc2-n2cccc2)c1 | inactive | –

Given with tabs: part of the list above
Row	Compound	Potency	activity change, negative = inhibition
28	Cc1nnc(NC(=O)Cn2cnc3c2c(=O)n(C)c(=O)n3C)s1	inconclusive: 13.1 µM [inhibitor, single point]	–
44	CC12CCC(=O)N1C(C(=O)NNC(=O)c1ccccc1)CS2 (configuration not stated)	inactive	–
